Source: patent publication US9296810 (Novartis, dated 2016)

Target: T1, hen egg white lysozyme (hen, UniProt P00698 19-147, biotinylated (HEL-b); sites not stated)
T1 construct: also called lyzozyme; HEL-b (biotinylated)
Experiment: yeast display selection

Binder | binding result
SEQ ID NO 51 (designed binder) VSDVPRDLEVVAATPTSLLISWDAPAVTVRYYRITYGESYRRGQSGQEFTVPGSKSTATISPSQSGVDYTITVYAVTGRGESPASSKPISINYSYAS | binds
SEQ ID NO 68 (designed binder) VSDVPRDLEVVAATPTSLLISWDAPAVTVRYYRITYGEYYRSSLPQEFTVPGSKSTATISYYYPSVDYTITVYAVTGRGESPASSKPISINYSRYY | binds
